This assay has as its target T1, S-Flag-streptavidin binding protein (SFB)-tagged HORMAD1 (human (cDNA from MDAH2774 cells)) (UniProt Q86X24).
T1 sequence: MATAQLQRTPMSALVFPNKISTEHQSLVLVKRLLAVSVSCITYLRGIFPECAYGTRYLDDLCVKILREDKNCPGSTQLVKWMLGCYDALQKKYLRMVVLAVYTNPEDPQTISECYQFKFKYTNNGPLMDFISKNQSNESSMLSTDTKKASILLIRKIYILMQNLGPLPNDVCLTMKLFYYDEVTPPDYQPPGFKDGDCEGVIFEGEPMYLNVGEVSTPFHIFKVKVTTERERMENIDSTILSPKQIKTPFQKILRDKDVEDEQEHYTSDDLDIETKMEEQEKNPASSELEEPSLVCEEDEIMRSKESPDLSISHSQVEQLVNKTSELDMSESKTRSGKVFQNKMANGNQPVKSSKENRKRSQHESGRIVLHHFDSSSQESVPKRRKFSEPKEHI
Description: affinity purification with mass spectrometry; tandem affinity purification of SFB-HORMAD1 from stably expressing 293T cells: lysis in NETN300, streptavidin-conjugated beads 4 °C 2 h, biotin elution, S-protein agarose beads, washes in NETN100; eluate analysed by mass spectrometry.

Sequences of proteins named here, by UniProt entry; tags and fusion partners are left off.
UniProt Q9NXL9: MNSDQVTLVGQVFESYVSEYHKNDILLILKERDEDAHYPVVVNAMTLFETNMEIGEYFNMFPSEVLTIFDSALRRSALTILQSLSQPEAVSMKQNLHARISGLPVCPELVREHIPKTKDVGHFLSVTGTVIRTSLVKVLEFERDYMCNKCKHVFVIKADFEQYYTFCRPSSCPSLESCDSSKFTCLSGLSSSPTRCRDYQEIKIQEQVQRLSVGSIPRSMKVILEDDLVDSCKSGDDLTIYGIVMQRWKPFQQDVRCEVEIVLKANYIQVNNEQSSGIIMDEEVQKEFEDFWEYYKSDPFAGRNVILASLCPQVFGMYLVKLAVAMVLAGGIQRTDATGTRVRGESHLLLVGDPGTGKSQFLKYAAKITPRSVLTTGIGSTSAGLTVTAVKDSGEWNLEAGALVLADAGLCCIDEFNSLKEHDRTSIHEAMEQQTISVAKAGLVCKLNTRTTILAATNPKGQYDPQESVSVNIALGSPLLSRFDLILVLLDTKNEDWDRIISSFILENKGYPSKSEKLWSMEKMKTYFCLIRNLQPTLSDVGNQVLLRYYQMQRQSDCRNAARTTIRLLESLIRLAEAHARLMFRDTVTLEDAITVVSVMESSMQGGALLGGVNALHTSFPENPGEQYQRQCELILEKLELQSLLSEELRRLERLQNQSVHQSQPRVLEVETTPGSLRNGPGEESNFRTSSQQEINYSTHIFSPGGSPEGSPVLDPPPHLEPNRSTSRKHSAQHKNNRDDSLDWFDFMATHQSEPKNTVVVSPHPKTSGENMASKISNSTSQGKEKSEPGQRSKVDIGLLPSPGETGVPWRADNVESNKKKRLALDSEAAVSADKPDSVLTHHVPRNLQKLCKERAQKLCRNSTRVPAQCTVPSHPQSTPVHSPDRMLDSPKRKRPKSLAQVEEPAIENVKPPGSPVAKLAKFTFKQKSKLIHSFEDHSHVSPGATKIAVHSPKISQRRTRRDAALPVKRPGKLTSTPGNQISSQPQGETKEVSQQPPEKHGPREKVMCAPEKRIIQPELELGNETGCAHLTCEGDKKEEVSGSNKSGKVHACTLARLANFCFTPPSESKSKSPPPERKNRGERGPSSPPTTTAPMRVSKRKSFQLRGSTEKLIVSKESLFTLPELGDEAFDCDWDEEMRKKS

No constants are given. Whether binding was seen depends on the method and setting. In cells and extracts the contact can be indirect. Here binding means that the protein was enriched with, or labelled near, the bait; the list need not be complete. Sequences can lack the tags named with a protein.

Consider “MCM9 (endogenous, 293T cells) (from UniProt Q9NXL9 1-1143)”, for which the binding result is reported as “binds”.

The values above are taken from publication PMC7347845.
